# Laboratory results: the supplement of paper PMC9135407
# Values joined by “and” are separate entries in the source; they are usually repeats but may differ in a detail not shown here. Equal values may be shown once. Where a name gives a salt, the structure may show the parent alone. ± gives the standard deviation of the averaged measurements. The list shows a part of the results. Plates or batches differ in their baseline, so values are only roughly comparable.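 Primary human stellate myofibroblasts activated in culture; inactivation shown by regained lipid droplets. Readout: fraction of Hoechst-counted cells exceeding a per-plate Bodipy threshold, duplicate wells, each plate with DMSO negative and nortriptyline positive controls. Hits: control-normalized score beyond the plate's top-tenth-percentile nortriptyline wells, or among its three best wells. Final well concentrations unstated.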
# System: primary human hepatic stellate cells (donor 1)
# Experiment: percent Bodipy-positive cells; higher = more lipid droplet accumulation
# Settings: 48 h
# Procedure: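 Primary lipid accumulation screen in primary human hepatic stellate cell myofibroblasts (donor 1, passage 8) in 384-well plates. 100 nL of library compound was pin-transferred into 30 µL medium in duplicate, and cells were treated for 48 h. The 'Scaled' score combines distance from plate baseline, toxicity and reproducibility penalties, and is normalised to nortriptyline (positive) and DMSO (negative) controls on each plate. A hit is defined as scaled >0.85 or among the top 3 wells per plate.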
# [1] = library stock concentration: 1 mM
# [2] = library stock concentration: 80 uM
# [3] = library stock concentration: 400 uM
# [4] = library stock concentration: 2 mM
# [5] = library stock concentration: 3.33 mM
# [6] = library stock concentration: 10 mM
# [7] = library stock concentration: 6.9 mM
# [8] = library stock concentration: 6.7 mM
smiles,measurement,setting,value
CC(C)(C)OC(=O)Nc1cccc2[nH]ccc12 [(1H-Indol-4-yl)-Carbamic Acid tert-butyl ester],percent Bodipy-positive cells,[1],8.92 ± 1.7%
CCCCCCC(Sc1nc(Cl)cc(NCc2ccc(-c3ccccc3)cc2)n1)C(=O)O (stereo not given),percent Bodipy-positive cells,[1],20.1 ± 6.7%
CN1CCCC(CC2c3ccccc3Sc3ccccc32)C1.Cl.O (stereo not given) [Metixene hydrochloride],percent Bodipy-positive cells,,95.486 ± 0.023%
COc1ccc2[nH]c([S+]([O-])Cc3ncc(C)c(OC)c3C)nc2n1 (stereo not given) [Tenatoprazole],percent Bodipy-positive cells,library stock concentration: 5.8 mM,12.8 ± 0.66%
CCOC(=O)CCNc1cc(N2CCc3ccccc3CC2)nc(-c2ccccn2)n1,percent Bodipy-positive cells,[2],39 ± 2.8%
same,percent Bodipy-positive cells,[3],30.7 ± 1.2%
same,percent Bodipy-positive cells,[4],39.6 ± 8.2%
same,percent Bodipy-positive cells,[5],9.59 ± 6.8%
same,percent Bodipy-positive cells,[6],45.5% and 37.7%
"CCCCCCCC(=O)OC[C@H](CO)OC(=O)CCCCCCC [1,2-Dioctanoyl-sn-glycerol]",percent Bodipy-positive cells,[1],7.09 ± 0.99%
"CCCCCCCC(=O)OC[C@H](CO)OC(=O)CCCCCCC [1,2-Dioctanoyl-SN-glycerol]",percent Bodipy-positive cells,[1],6.11 ± 2.9%
CN(C)CCOC(c1ccccc1)c1ccccc1 [Diphenhydramine HCl],percent Bodipy-positive cells,[5],18.4 ± 4.2%
same,percent Bodipy-positive cells,library stock concentration: 7.8 mM,25.9 ± 4.3%
same,percent Bodipy-positive cells,[6],36.6 ± 2.6%
CN(C)CCOC(c1ccccc1)c1ccccc1 [Diphenhydramine hydrochloride],percent Bodipy-positive cells,,60.3 ± 7.4%
same,percent Bodipy-positive cells,[7],27.3 ± 13%
CN(C)CCOC(c1ccccc1)c1ccccc1,percent Bodipy-positive cells,[6],47.2 ± 5.1%
Cc1cc(=O)oc2c(C=O)c(O)ccc12,percent Bodipy-positive cells,[5],28.2 ± 3.2%
same,percent Bodipy-positive cells,[6],13.9 ± 0.85%
NC(=O)c1cc[n+](CC2=C(C(=O)[O-])N3C(=O)[C@@H](NC(=O)[C@@H](c4ccccc4)S(=O)(=O)O)[C@H]3SC2)cc1 [Cefsulodin sodium salt],percent Bodipy-positive cells,,8.6 ± 0.66%
CC(C)=CC[C@@H](O)C1=CC(=O)c2c(O)ccc(O)c2C1=O [Shikonin],percent Bodipy-positive cells,[7],76.5 ± 9.9%
same,percent Bodipy-positive cells,library stock concentration: 17.3 mM,4.79 ± 1.5%
CCCCNC(=O)NS(=O)(=O)c1ccc(CO)cc1 [4-hydroxy Tolbutamide],percent Bodipy-positive cells,[1],12.1 ± 1.6%
"CC(O)C(O)[C@H]1CNc2nc(N)[nH]c(=O)c2N1 (stereo partly drawn) [(6R)-5,6,7,8-Tetrahydro-L-biopterin hydrochloride]",percent Bodipy-positive cells,[6],28 ± 4.8%
NC(=O)C1=CN(C2OC(COP(=O)(O)OP(=O)(O)OC[C@H]3O[C@@H](n4cnc5c(N)ncnc54)C(OP(=O)(O)O)[C@H]3O)C(O)C2O)C=CC1 (stereo not given in full) [NADPH tetrasodium],percent Bodipy-positive cells,[6],35.3 ± 16%
"CCCCCC#CCC#CCC#CCC#CCCCC(=O)O [5,8,11,14-Eicosatetraynoic acid]",percent Bodipy-positive cells,[1],10.5 ± 7.5%
NC[C@@H]1CC[C@@H](N)[C@@H](O[C@H]2[C@H](O)[C@@H](O[C@H]3O[C@H](CO)[C@@H](O)[C@H](N)[C@H]3O)[C@H](N)C[C@@H]2N)O1 [Dibekacin],percent Bodipy-positive cells,[6],36.5 ± 1.6%
C[C@]12CC[C@H](O)CC1=CC[C@@H]1[C@@H]2CC[C@]2(C)C(n3cnc4ccccc43)=CC[C@@H]12 [Galeterone],percent Bodipy-positive cells,[5],20.4 ± 3%
CC1=C(/C=C/C(C)=C/C=C/C(C)=C/C(=O)O)C(C)(C)CCC1 [Retinoic acid],percent Bodipy-positive cells,,25.5 ± 2.5%
same,percent Bodipy-positive cells,[8],7.25 ± 1.2%
same,percent Bodipy-positive cells,[6],18.2% and 5.85%
CC1=C(/C=C/C(C)=C/C=C/C(C)=C/C(=O)O)C(C)(C)CCC1 [All trans retinoic acid],percent Bodipy-positive cells,[1],16.3 ± 3.5%
CC1=C(/C=C/C(C)=C/C=C/C(C)=C/C(=O)O)C(C)(C)CCC1 [Tretinoin],percent Bodipy-positive cells,[5],7.84 ± 2.7%
same,percent Bodipy-positive cells,[6],19 ± 7.3%
CC1=C(/C=C/C(C)=C/C=C/C(C)=C/C(=O)O)C(C)(C)CCC1 [Tretinon],percent Bodipy-positive cells,[8],15.6 ± 0.65%
same,percent Bodipy-positive cells,[6],28.7 ± 10%
CC1=C(/C=C/C(C)=C/C=C/C(C)=C/C(=O)O)C(C)(C)CCC1 [trans-Retinoic acid],percent Bodipy-positive cells,[6],41.5 ± 15%
O=C(Nc1nc2cccc(-c3ccc(CN4CCS(=O)(=O)CC4)cc3)n2n1)C1CC1 [Filgotinib],percent Bodipy-positive cells,[2],8.13 ± 1.9%
same,percent Bodipy-positive cells,[3],6.79 ± 4%
same,percent Bodipy-positive cells,[4],5.19 ± 1.6%
same,percent Bodipy-positive cells,[6],28.5 ± 3%
O=C(Nc1nc2cccc(-c3ccc(CN4CCS(=O)(=O)CC4)cc3)n2n1)C1CC1 [Filgotinib (GLPG0634)],percent Bodipy-positive cells,[5],19.2 ± 5.8%
same,percent Bodipy-positive cells,[6],68.4 ± 4.7%
COc1ccc2ccc(=O)oc2c1CC=C(C)C [Osthole],percent Bodipy-positive cells,[5],11 ± 7.5%
same,percent Bodipy-positive cells,[6],14.6 ± 2.1%
N=C(N)NS(=O)(=O)c1ccc(N)cc1 [Sulfaguanidine],percent Bodipy-positive cells,,29.8 ± 3.9%
same,percent Bodipy-positive cells,[5],16.5 ± 2.3%
same,percent Bodipy-positive cells,library stock concentration: 9.3 mM,15.9 ± 4%
same,percent Bodipy-positive cells,[6],35.5% and 36.3%
CC(=O)Oc1ccccc1C(=O)O [Aspirin],percent Bodipy-positive cells,[5],7.8 ± 2%
same,percent Bodipy-positive cells,[6],13% and 10.4%
CC(=O)Oc1ccccc1C(=O)O [Acetylsalicylic acid],percent Bodipy-positive cells,[6],27.4 ± 13%
CCCCCCOC(=O)[C@]1(O)C[C@@H]2O[C@@]1(C)n1c3ccccc3c3c4c(c5c6ccccc6n2c5c31)C(=O)NC4,percent Bodipy-positive cells,library stock concentration: 900 uM,17.87 ± 0.16%
same,percent Bodipy-positive cells,[5],9.8 ± 1.7%
O=C(O)[C@H]1NCCC[C@H]1C(=O)O,percent Bodipy-positive cells,[6],11.4 ± 2.3%
CCCCCCCC/C=C\CCCCCCCC(=O)NCC(=O)O [N-Oleoyl Glycine],percent Bodipy-positive cells,[1],14 ± 3.3%
CC1=C(/C=C/C(C)=C/C=C/C(C)=C/C=C/C=C(C)/C=C/C=C(C)/C=C/C2=C(C)C(=O)[C@@H](O)CC2(C)C)C(C)(C)C[C@H](O)C1=O [Astaxanthin],percent Bodipy-positive cells,[6],46 ± 9%
CNS(=O)(=O)CCc1ccc2[nH]cc(C3CCN(C)CC3)c2c1 [Naratriptan hydrochloride],percent Bodipy-positive cells,[6],33.1 ± 3.3%
CNS(=O)(=O)CCc1ccc2[nH]cc(C3CCN(C)CC3)c2c1 [Naratriptan],percent Bodipy-positive cells,[5],7.43 ± 1.6%
same,percent Bodipy-positive cells,[6],15.4 ± 0.44%

# Quoted at random: two records from the list
smiles,measurement,setting,value
CC1=C(/C=C/C(C)=C/C=C/C(C)=C/C(=O)O)C(C)(C)CCC1 [Tretinon],percent Bodipy-positive cells,[8],15.6 ± 0.65%
COc1ccc2ccc(=O)oc2c1CC=C(C)C [Osthole],percent Bodipy-positive cells,[6],14.6 ± 2.1%

# Rewritten as tab-separated lines: part of the list above.
smiles	measurement	setting	value
N=C(N)NS(=O)(=O)c1ccc(N)cc1 [Sulfaguanidine]	percent Bodipy-positive cells		29.8 ± 3.9%
CCCCCCOC(=O)[C@]1(O)C[C@@H]2O[C@@]1(C)n1c3ccccc3c3c4c(c5c6ccccc6n2c5c31)C(=O)NC4	percent Bodipy-positive cells	library stock concentration: 900 uM	17.87 ± 0.16%
